Laboratory results published in PMC7455081.
No constants are given. Whether binding was seen depends on the method and setting. In cells and extracts the contact can be indirect. Some binding calls cover weakened binding; strength is not graded here.

Biological target: T1, Arrestin domain containing 3 (human (endogenous in AGS)) (UniProt Q96B67)
T1 sequence: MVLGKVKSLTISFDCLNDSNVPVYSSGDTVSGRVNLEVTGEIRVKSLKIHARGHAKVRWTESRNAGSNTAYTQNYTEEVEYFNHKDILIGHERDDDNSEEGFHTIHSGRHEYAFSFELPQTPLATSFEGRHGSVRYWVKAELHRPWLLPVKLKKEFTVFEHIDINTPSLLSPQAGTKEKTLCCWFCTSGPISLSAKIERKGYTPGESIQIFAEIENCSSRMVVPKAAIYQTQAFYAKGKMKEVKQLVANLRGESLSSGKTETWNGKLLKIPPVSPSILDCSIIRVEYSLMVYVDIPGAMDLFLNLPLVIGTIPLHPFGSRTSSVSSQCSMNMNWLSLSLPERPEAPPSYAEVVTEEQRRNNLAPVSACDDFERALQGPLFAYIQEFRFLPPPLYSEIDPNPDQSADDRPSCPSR
Assay: co-IP; ARRDC3 immunoprecipitated with rabbit anti-ARRDC3 mAb (rabbit IgG as negative control) from whole-cell extracts of AGS cells infected with WT H. pylori (MOI = 100, 24 hours), pretreated with or without Bafilomycin A1 (1 uM); 4°C overnight, protein A/G magnetic beads; immunoblot with mouse anti-PAR1 mAb

- binding: binds
B1: protease-activated receptor 1 (receptor, UniProt P25116 42-425)
chain: SFLLRNPNDKYEPFWEDEEKNESGLTEYRLVSINKSSPLQKQLPAFISEDASGYLTSSWLTLFVPSVYTGVFVVSLPLNIMAIVVFILKMKVKKPAVVYMLHLATADVLFVSVLPFKISYYFSGSDWQFGSELCRFVTAAFYCNMYASILLMTVISIDRFLAVVYPMQSLSWRTLGRASFTCLAIWALAIAGVVPLLLKEQTIQVPGLNITTCHDVLNETLLEGYYAYYFSAFSAVFFFVPLIISTVCYVSIIRCLSSSAVANRSKKSRALFLSAAVFCIFIICFGPTNVLLIAHYSFLSHTSTTEAAYFAYLLCVCVSSISCCIDPLIYYYASSECQRYVYSILCCKESSDPSSYNSSGQLMASKMDTCSSNLNNSIYKKLLT
